The values that follow come from patent publication US6046289A (priority 1990, dated 2000).

For part of these data: Some peptides are written in HELM: one residue between dots, names in brackets for other building blocks, links after the first $.

The first series can be described thus: solution-phase peptide synthesis. As to conditions: coupling step, hydrochloride.
BocArg(Mts)GlyAsp(OBzl)Ser(Bzl)GlyNH2 showed a step yield of 45%.
With BocGlyAsp(OBzl)Ser(Bzl)GlyNH2, the step yield was 84%.
BocArg(Mts)GlyAsp(OBzl)Ser(Bzl)OBzl had a step yield of 50%.

Staying with this series, now noted: late stage modification step, hydrochloride.
In turn, CH2 =CCH3 --CO--NH--C2 H4 --CO-RGDSGNH2 came in with a step yield of 65%.
BocArg(Mts)GlyAsp(OBzl)Gly showed a step yield of 79%.
“PEPTIDE1{[Methacryloyl].[bAla].R.G.D.S}$$$$V2.0” registered a step yield of 80%.

The next series in a line: general procedure: Boc solid-phase peptide synthesis. The note with it: whole synthesis, hydrochloride.
As to CH2=CCH3-CO-GRGDSP, the isolated yield stood at 26%.
For the substance CH2=CH-CO-GGGRGDS, the isolated yield stood at 30%.
The same measure, in the same setting: to CH2=CC2H5-CO-NH-(CH2)4-CO-GRGDS belongs 35%.
